Assay results from PubChem BioAssay AID248 (DTP/NCI, 2004).
The list shows only some results of the screen, not a fair sample: it is rich in T/C values a quarter to a half above the control, in often repeated tests (any T/C) and in doses without a T/C. Further doses and runs are listed elsewhere. T/C is the treated group as % of the vehicle group. Some entries give survivors of the animals treated and no T/C: the source files T/C as zero there, which appears to mark a toxic dose or a test without result, not a measured value. Some doses without a T/C left all or most animals alive at the check, yet need not have been tolerated: survival well below the control is almost never listed, so the zero probably covers shortened survival too. Survivors were counted at the toxicity check, usually on the fifth day, unless a day is given; later deaths do not show. Schedules are NCI's codes, read here as Q, the interval in days (D) or hours (H), X, the number of doses. Some schedules carry Z or #; the key to these is not given. Where survival is the endpoint, this PubChem deposit counts one and a half times the control or more as active, and values a quarter to a half above the control carry no call in these data; other NCI protocols may use other cut-offs. Some doses were run more than once; the values are given in rising order. Additions like (4×) give the number of equal values in this list. Some T/C values carry the count of animals alive at the toxicity check (mostly the fifth day); where none is given, no animal had died by that day.

Test system: L1210 leukemia ip in BDF1 mice, survival T/C
Assay: NCI In Vivo Anticancer Drug Screen. Data for tumor model L1210 Leukemia (intraperitoneal) in B6D2F1 (BDF1) mice
Conditions: T/C endpoint: mean survival time, higher T/C = longer survival

For `CCCCn1cnc2c(=S)nc[nH]c21`, the T/C (dose: 64.0 mg/kg/injection, schedule: Q01DX Z (ip), vehicle: carboxymethylcellulose (CMC)) was 140 % of control, the T/C (dose: 66.0 mg/kg/injection, schedule: Q01DX015 (ip), vehicle: carboxymethylcellulose (CMC)) was 136 % of control and the T/C (dose: 80.0 mg/kg/injection, schedule: Q01DX Z (ip), vehicle: carboxymethylcellulose (CMC)) was 143 % of control. The T/C (dose: 120.0 mg/kg/injection, schedule: Q01DX015 (ip), vehicle: carboxymethylcellulose (CMC)) was 147 % of control, the T/C (dose: 128.0 mg/kg/injection, schedule: Q01DX Z (oral), vehicle: carboxymethylcellulose (CMC)) was 149 % of control and the T/C (dose: 129.0 mg/kg/injection, schedule: Q02DX010 (ip), vehicle: carboxymethylcellulose (CMC)) was 122, 131, 143 (2×), 167 % of control. The T/C (dose: 132.0 mg/kg/injection, schedule: Q02DX010 (ip), vehicle: carboxymethylcellulose (CMC)) was 146 % of control, the T/C (dose: 150.0 mg/kg/injection, schedule: Q01DX015 (ip), vehicle: carboxymethylcellulose (CMC)) was 131 % of control and the T/C (dose: 200.0 mg/kg/injection, schedule: Q02DX010 (ip), vehicle: carboxymethylcellulose (CMC)) was 136 % of control. The T/C (dose: 201.0 mg/kg/injection, schedule: Q02DX010 (ip), vehicle: carboxymethylcellulose (CMC)) was 144, 150, 154 (2×), 156 % of control, the T/C (dose: 256.0 mg/kg/injection, schedule: Q01DX009 (ip), vehicle: saline) was 136 % of control and the T/C (dose: 300.0 mg/kg/injection, schedule: Q02DX010 (ip), vehicle: carboxymethylcellulose (CMC)) was 107, 119, 127, 129, 131, 139 % of control. For the same compound, the T/C (dose: 450.0 mg/kg/injection, schedule: Q02DX010 (ip), vehicle: carboxymethylcellulose (CMC)) was 87, 96, 97, 102, 104, 129 % of control, the survivor count (dose: 512.0 mg/kg/injection, schedule: Q01DX Z (ip), vehicle: saline) was 6 of 6 and the T/C (dose: 675.0 mg/kg/injection, schedule: Q02DX010 (ip), vehicle: carboxymethylcellulose (CMC)) was 82, 87, 88, 90, 93 % of control.
For `CC1CCCC(CN=Cc2cc([N+](=O)[O-])ccc2O)[N-]1.CC1CCCC(CN=Cc2cc([N+](=O)[O-])ccc2O)[N-]1.[Ni+2]` (centres undefined), the survivor count (dose: 400.0 mg/kg/injection, schedule: Q01DX009 (ip), vehicle: saline with Tween-80) was 6 of 6.
In the case of `CCS(=O)(=O)Nc1ccc(Nc2c3ccccc3nc3ccccc23)c(OC)c1`, the T/C (dose: 1.25 mg/kg/injection, schedule: Q01DX009 (ip), vehicle: Klucel (hydroxypropylcellulose) (HPC)) was 133 % of control, the T/C (dose: 1.25 mg/kg/injection, schedule: Q01DX009 (ip), vehicle: saline) was 130 % of control and the T/C (dose: 2.5 mg/kg/injection, schedule: Q01DX009 (ip), vehicle: saline) was 142 % of control.
In the case of `CCN(CC)C1CCC(NC(C)=O)CC1` (centres undefined), the survivor count (dose: 400.0 mg/kg/injection, schedule: Q01DX009 (ip), vehicle: saline) was 3 of 6 and the survivor count (dose: 400.0 mg/kg/injection, schedule: Q04DX003 (ip), vehicle: saline) was 4 of 6.
With `O=C(O)c1cccc(Cl)c1F` the T/C (dose: 200.0 mg/kg/injection, schedule: Q04DX002 (ip), vehicle: saline with Tween-80) was 129 % of control [2 of 3 alive] and the survivor count (dose: 400.0 mg/kg/injection, schedule: Q04DX002 (ip), vehicle: saline with Tween-80) was 0 of 3.
In the case of `NCCCC(NC(=O)CCCCCCCCN=C(N)N)C(O)CCCCCCCCN=C(N)N` (centres undefined), the survivor count (dose: 40.0 mg/kg/injection, schedule: Q01DX001 (ip), vehicle: carboxymethylcellulose (CMC)) was 2 of 4, the survivor count (dose: 80.0 mg/kg/injection, schedule: Q01DX001 (ip), vehicle: carboxymethylcellulose (CMC)) was 2 of 4 and the survivor count (dose: 100.0 mg/kg/injection, schedule: Q01DX001 (ip), vehicle: carboxymethylcellulose (CMC)) was 2 of 4. For the same compound, the survivor count (dose: 200.0 mg/kg/injection, schedule: Q01DX001 (ip), vehicle: carboxymethylcellulose (CMC)) was 1 of 4 and the survivor count (dose: 400.0 mg/kg/injection, schedule: Q01DX001 (ip), vehicle: carboxymethylcellulose (CMC)) was 0 of 4.
For `CCN(CC)CCCC(C)Nc1ccnc(C)c1` (centres undefined), the survivor count (dose: 75.0 mg/kg/injection, schedule: Q04DX003 (ip), vehicle: other) was 0 of 6, the survivor count (dose: 150.0 mg/kg/injection, schedule: Q04DX003 (ip), vehicle: other) was 0 of 6 and the survivor count (dose: 300.0 mg/kg/injection, schedule: Q04DX003 (ip), vehicle: other) was 0 of 6.
With `CN(C)CCCNC(=S)Nc1ccc(Cl)cc1` the survivor count (dose: 200.0 mg/kg/injection, schedule: Q01DX009 (ip), vehicle: saline with Tween-80) was 0 of 3.
With `CC(C)c1ccccc1NC1=NCCO1` the survivor count (dose: 100.0 mg/kg/injection, schedule: Q01DX009 (ip), vehicle: Klucel (hydroxypropylcellulose) (HPC)) was 0 of 3 and the survivor count (dose: 200.0 mg/kg/injection, schedule: Q01DX009 (ip), vehicle: Klucel (hydroxypropylcellulose) (HPC)) was 0 of 3.
